Data on one substance can be found in publication PMC9576510.

These are yes or no findings as the source states them, for the method shown. In cells and extracts the contact can be indirect. Here binding means that the protein was enriched with, or labelled near, the bait; the list need not be complete.

The target of the assay is T1, Cell death-inducing DNA fragmentation-factor like effector C (CIDEC) (mouse (endogenous in small intestine tissue)) (UniProt P56198).
T1 sequence: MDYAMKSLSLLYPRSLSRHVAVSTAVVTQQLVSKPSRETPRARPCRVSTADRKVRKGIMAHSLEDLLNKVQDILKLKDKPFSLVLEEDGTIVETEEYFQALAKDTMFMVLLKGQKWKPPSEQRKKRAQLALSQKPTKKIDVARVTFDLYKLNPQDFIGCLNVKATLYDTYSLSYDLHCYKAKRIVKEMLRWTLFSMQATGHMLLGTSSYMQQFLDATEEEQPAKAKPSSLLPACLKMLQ
Briefly: affinity purification with mass spectrometry; Co-IP/MS: 3 mg small intestine protein supernatant (RIPA) of WT mice, precleared with IgG and protein L-agarose, polyclonal CIDEC antibody 1 h, protein L-agarose at 4 °C overnight, washed twice with RIPA, eluted by boiling, SDS-PAGE, mass spectrum analysis; control IgG precipitate alongside.

On to “1-acylglycerol-3-phosphate-O-acyltransferase (AGPAT) (enzyme)”, for which the binding result is recorded as “binds”.
